The campaign covered roughly 390,000 compounds. About 4,000 (1%) were called active. This list was built around the results that the source calls inconclusive (neither active nor inactive); the mix of calls is not that of the screen. The call rests on the fitted dose curve; in most records, active means well fitted inhibition curve with a large enough effect; inconclusive means small, poorly fitted or top-dose-only effect, or another doubt; inactive means no such curve, though single readings can be large or run the other way. A potency beside an inconclusive call is a rough fit, not a confirmed value.
Target: DNA polymerase iota (Homo sapiens) (UniProt Q9UNA4)
Assay: qHTS for Inhibitors of Polymerase Iota
Conditions: Pol iota fluorescent replication assay, 10 min; series mostly up to 115 µM; activity, negative = inhibition: at the top concentration
Method in brief: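 Fluorescent replication assay read twice, at 0 min and 10 min after adding 50 nM (final) substrate. Enzyme (10 nM) and compounds were first incubated 15 min at room temperature; enzyme-free buffer wells were negative controls.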
Potency means the concentration at half of the fitted maximal effect.

Amino acid sequences for entries named in this document (tags omitted). A change or cut given only in a name is not applied to a line headed by its entry.
UniProt Q9UNA4: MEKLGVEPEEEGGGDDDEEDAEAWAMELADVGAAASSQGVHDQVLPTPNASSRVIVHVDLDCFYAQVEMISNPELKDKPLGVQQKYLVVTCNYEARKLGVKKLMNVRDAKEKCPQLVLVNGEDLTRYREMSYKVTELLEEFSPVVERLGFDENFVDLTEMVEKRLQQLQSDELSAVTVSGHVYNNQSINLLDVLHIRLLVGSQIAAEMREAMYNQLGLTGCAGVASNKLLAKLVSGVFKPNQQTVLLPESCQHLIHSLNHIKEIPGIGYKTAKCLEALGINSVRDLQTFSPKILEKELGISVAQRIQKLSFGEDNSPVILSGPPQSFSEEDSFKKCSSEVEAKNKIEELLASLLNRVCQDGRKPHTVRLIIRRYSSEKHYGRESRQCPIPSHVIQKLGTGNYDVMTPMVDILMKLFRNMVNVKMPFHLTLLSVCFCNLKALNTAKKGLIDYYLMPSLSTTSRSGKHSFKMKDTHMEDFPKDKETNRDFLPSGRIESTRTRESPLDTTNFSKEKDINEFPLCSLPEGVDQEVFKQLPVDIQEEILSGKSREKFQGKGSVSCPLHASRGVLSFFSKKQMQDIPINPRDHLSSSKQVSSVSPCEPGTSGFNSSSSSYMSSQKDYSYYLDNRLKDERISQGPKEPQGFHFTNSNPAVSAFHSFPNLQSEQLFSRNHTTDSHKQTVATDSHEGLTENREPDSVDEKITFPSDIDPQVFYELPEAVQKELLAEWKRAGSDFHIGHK

| Structure (SMILES) | Potency | activity, negative = inhibition |
| --- | --- | --- |
| CC(C)C[C@@H]1NC(=O)[C@H](CO)NC(=O)c2cc([N+](=O)[O-])cc(I)c2OCC[C@@H](C(N)=O)NC1=O | inconclusive: 39.8 µM [inhibitor, single point] | – |
| Cc1ccc(NC(=O)CN2C(=O)C(c3ccc(F)cc3)=NC23CCCCCC3)c(C)c1 | active: 44.7 µM | – |
| CCC(C)NCCOCCOc1ccccc1-c1ccccc1 (stereo not given) | inconclusive: 20 µM [inhibitor, full curve, poor fit] | – |
| COc1ccc(O)c(C(=O)c2cnc3nc4ccccc4n3c2)c1 | inconclusive: 28.2 µM [inhibitor, single point] | – |
| Nc1cccn2c(-c3ccc(Cl)c(Cl)c3)cnc12 | active: 12.6 µM | – |
| CC(C)N=c1scc(-c2cccs2)n1/N=C/c1ccc(O)c(O)c1O | inconclusive: 39.8 µM [inhibitor, partial curve] | – |
| CCc1cccc2c1Sc1ccccc1CC2N1CCNCC1 (stereo not given) | inconclusive: 28.2 µM [inhibitor, single point] | – |
| CCOC(=O)c1cc(C)n(CC2CCC(C(=O)Nc3ccc(OC)cc3)CC2)c1C (stereo not given) | – | inactive: 8.14% |
| COc1ccc(C)cc1NC(=O)c1cc(S(=O)(=O)N2CCC(C)CC2)ccc1F | inconclusive: 89.1 µM [inhibitor, single point] | – |
| Cc1cc(C)cc(Nc2cc(C(=O)NC3CCCCC3)c3ccccc3n2)c1 | – | inactive: -1.8% |
| COc1ccc(-n2c(CN3CCOCC3)nc3ccc([N+](=O)[O-])cc3c2=O)c(OC)c1 | inconclusive: 56.2 µM [inhibitor, partial curve, poor fit] | – |
| COc1ccccc1OCCn1c(CCNC(=O)C2CCCCC2)nc2ccccc21 | – | inactive: 32.2% |
| NCCCCCc1cn(CC(=O)NCCCCCCCCCCC(=O)N2CCNCC2)nn1 | inconclusive: 8.91 µM [inhibitor, partial curve, poor fit] | – |
| Cc1cc(Nc2nc3ccccc3c3nnc(C)n23)ccc1Br | – | inactive: -2.12% |
| CCC(=O)Nc1cc2c3c(c1)CCN3C(=O)CC2 | inconclusive: 44.7 µM [inhibitor, partial curve, poor fit] | – |
| Cc1oc(-c2ccccc2F)nc1Cn1c(SCc2cccc(C(F)(F)F)c2)nc2ccncc21 | inconclusive: 100 µM [inhibitor, single point] | – |
| Cc1[nH]nc2c1C(Cc1ccccc1)C(C#N)=C(N)O2 (stereo not given) | inconclusive: 3.16 µM [inhibitor, full curve, poor fit] | – |
| N#CCCN(C(=O)CSc1ncccn1)c1ccc2c(c1)OCCO2 | – | inactive: 19.2% |
| Cc1cccc(-n2cnc3cc(C(=O)NCc4ccccc4Cl)ccc32)c1 | – | inactive: -6.31% |
| Cc1cc2c(cc1S(=O)(=O)Nc1ccc(C(C)C)cc1)OCCN2C | inconclusive: 89.1 µM [inhibitor, single point] | – |
| COc1cc(Cl)cc(C#N)c1OCC(=O)O | inconclusive: 89.1 µM [inhibitor, partial curve, poor fit] | – |
| Cc1ccc(S(=O)(=O)/N=C/c2ccco2)cc1 | inconclusive: 89.1 µM [inhibitor, partial curve] | – |

| Structure (SMILES) | Potency | activity, negative = inhibition |
| --- | --- | --- |
| Cc1cnc(C(=O)NCC(=O)Nc2ccccc2Br)cn1 | active: 17.8 µM | – |
| Cc1ccc2oc(-c3ccccc3)nc2c1 | inconclusive: 44.7 µM [inhibitor, partial curve, poor fit] | – |
| CC1CCCCN1Cc1c(O)ccc2c(=O)c(-c3ccc(Cl)cc3)c(C(F)(F)F)oc12 (stereo not given) | – | inactive: 4.47% |
| Cc1cc(C2=NNC(=Nc3ccc(S(=O)(=O)N4CCOCC4)cc3)SC2)c(C)n1CC1CCCO1 (stereo not given) | inconclusive: 39.8 µM [inhibitor, single point] | – |
| CCOC(=O)c1cnc(SCC(=O)Nc2ccc3c(c2)OCCO3)nc1N | inconclusive: 50.1 µM [inhibitor, partial curve, poor fit] | – |
| COc1ccc(CCNC(=O)CSc2nnnn2-c2ccccc2)cc1 | inconclusive: 28.2 µM [inhibitor, partial curve, poor fit] | – |
| COc1ccc(Nc2ncnc3c2cnn3Cc2ccccc2)cc1 | inconclusive: 22.4 µM [inhibitor, full curve, poor fit] | – |
| C#CCOCCOCCOCCNc1nc(N2CCN(C(=O)[C@H](CC(N)=O)n3cc([C@@H](N)CC(N)=O)nn3)CC2)nc(N2CCN(C(=O)[C@H](CC(N)=O)n3cc([C@@H](N)CC(N)=O)nn3)CC2)n1 | inconclusive: 14.1 µM [inhibitor, partial curve, poor fit] | – |
| CCC1CCCCN1C(=O)CCc1nnc(C2CCCCC2)o1 (stereo not given) | inconclusive: 39.8 µM [inhibitor, partial curve, poor fit] | – |
| CN1CCC(N2CCN(c3cccc(C(F)(F)F)c3)CC2)CC1 | active: 35.5 µM | – |
| Cc1c(N2C(=O)/C(=C3/C(=O)N(C)c4ccccc43)SC2=S)c(=O)n(-c2ccccc2)n1C | – | inactive: -27.5% |
| CC(=O)N1c2ccc(S(=O)(=O)NCCC(=O)Nc3ccc(OC(F)(F)F)cc3)cc2CC1C (stereo not given) | inconclusive: 50.1 µM [inhibitor, partial curve, poor fit] | – |
| Clc1ccc2c(SCC3CO3)c3ccccc3nc2c1 (stereo not given) | inconclusive: 20 µM [inhibitor, partial curve, poor fit] | – |
| CCOc1ccc(NC(=O)CSc2nnc3scc(-c4ccccc4)n23)cc1 | – | inactive: 15.9% |
| Cc1csc(SCC(=O)Nc2sccc2C#N)n1 | active: 22.4 µM | – |
| COc1ccc(OC)c(NC(=O)NNC(=O)COc2ccc(-c3ccccc3)cc2)c1 | – | inactive: 17.3% |
| Cc1ccccc1NC(=O)/C=C/c1ccc([N+](=O)[O-])s1 | inconclusive: 7.94 µM [inhibitor, full curve, poor fit] | – |
| C#C[C@]1(O)CC[C@H]2[C@@H]3CCC4=CC(=O)CC[C@@H]4[C@H]3CC[C@@]21C | inconclusive: 28.2 µM [inhibitor, full curve, poor fit] | – |
| O=C1CC(c2ccc(OCCCCCOc3ccc(C4CC(=O)NC4=O)cc3)cc2)C(=O)N1 (stereo not given) | inconclusive: 56.2 µM [inhibitor, partial curve, poor fit] | – |
| CC1(C)CC(NC(=O)COc2ccccc2Cl)CC(C)(C)N1 | inconclusive: 56.2 µM [inhibitor, partial curve, poor fit] | – |
| CCc1c(C)sc(NC(=S)Nc2cccnc2)c1C(=O)OC | – | inactive: 159% |
| CCCc1cc(=O)[nH]c(SCC(=O)N2c3ccccc3NC(=O)C2(C)C)n1 | inconclusive: 3.55 µM [inhibitor, full curve, poor fit] | – |

| Structure (SMILES) | Potency | activity, negative = inhibition |
| --- | --- | --- |
| Nc1ccc(-c2ccc(N)c([N+](=O)[O-])c2)cc1[N+](=O)[O-] | inconclusive: 31.6 µM [inhibitor, partial curve, poor fit] | – |
| Cc1ccc(-c2noc(-c3ccccc3NC(=O)C3CC(=O)N(c4ccccc4C)C3)n2)cc1 (stereo not given) | – | inactive: -0.605% |
| Cc1cc(C)c2c(N)c(C(=O)NN)sc2n1 | inconclusive: 44.7 µM [inhibitor, partial curve] | – |
| CCc1nn(CC(=O)Nc2ccc(N(CC)CC)cc2C)c(=O)c2cc3sccc3n12 | inconclusive: 79.4 µM [inhibitor, partial curve] | – |
| CC(C)Sc1ncc(Cl)c(C(=O)N(Cc2ccc(N(C)C)cc2)C2CCS(=O)(=O)C2)n1 (stereo not given) | inconclusive: 79.4 µM [inhibitor, single point] | – |
| CC(C)Cc1cc(C(=O)NCc2ccco2)no1 | inconclusive: 28.2 µM [inhibitor, partial curve, poor fit] | – |
| COc1ccc(CC(=O)N2CCN(c3ccccn3)CC2)cc1OC | inconclusive: 28.2 µM [inhibitor, single point] | – |
| O=C(NCC1CCCCC1)c1ccc([N+](=O)[O-])cc1 | inconclusive: 100 µM [inhibitor, partial curve, poor fit] | – |
| COc1ccc(CN(CC(=O)NCc2ccc(F)cc2)C(=O)CCC(=O)Nc2cc(C)ccn2)cc1 | inconclusive: 79.4 µM [inhibitor, partial curve, poor fit] | – |
| Cc1cc([N+](=O)[O-])nn1CC(=O)Nc1cccc2nonc12 | – | inactive: 67.6% |
| CC(OC(=O)c1ccc2ccccc2n1)C(=O)Nc1ccc(N2CCOCC2)cc1 (stereo not given) | inconclusive: 11.2 µM [inhibitor, single point] | – |
| Cc1ccc(NC(=O)N2CCC(C(N)=O)CC2)cc1 | inconclusive: 89.1 µM [inhibitor, single point] | – |
| CC1(C)Cc2ccccc2-c2c[nH]c(=O)n21 | – | inactive: 35.5% |
| CN(C)Cc1cc(C(C)(C)C)c(O)c(C(C)(C)C)c1 | inconclusive: 7.94 µM [inhibitor, single point] | – |
| COc1ccc(CNC(=O)C2CCN(S(=O)(=O)N3CCC4(CC3)OCCO4)CC2)c(OC)c1 | inconclusive: 89.1 µM [inhibitor, single point] | – |
| COc1cc(/C=C2/SC(=O)NC2=O)ccc1OCc1ccccc1 | inconclusive: 2.82 µM [inhibitor, partial curve, poor fit] | – |
| S=C(NCc1cccc(Cl)c1)NCc1ccco1 | inconclusive: 63.1 µM [inhibitor, partial curve, poor fit] | – |
| COc1cccc(C2=NOC(C(=O)Nc3cccc(C(C)=O)c3)C2)c1OC (stereo not given) | – | inactive: 24.6% |
| CCc1ccc(N2C(=O)c3sc4nnc(-c5ccccc5)c(=O)n4c3C2=O)cc1 | inconclusive: 39.8 µM [inhibitor, partial curve, poor fit] | – |
| NC(=O)c1cc(S(=O)(=O)Nc2ccccc2)cs1 | inconclusive: 89.1 µM [inhibitor, single point] | – |
| CC(=O)Nc1ccc2nc(SCCOc3cc(C)cc(C)c3)sc2c1 | inconclusive: 39.8 µM [inhibitor, single point] | – |

Single records, from the list above. Order of values: Potency | activity, negative = inhibition
Cc1cccc(-n2cnc3cc(C(=O)NCc4ccccc4Cl)ccc32)c1 as listed: – | inactive: -6.31%
NCCCCCc1cn(CC(=O)NCCCCCCCCCCC(=O)N2CCNCC2)nn1 as listed: inconclusive: 8.91 µM [inhibitor, partial curve, poor fit] | –
Nc1ccc(-c2ccc(N)c([N+](=O)[O-])c2)cc1[N+](=O)[O-] as listed: inconclusive: 31.6 µM [inhibitor, partial curve, poor fit] | –
